In PMC11600285:
These are yes or no findings as the source states them, for the method shown. Binding seen in cells or lysates may run through a third protein. Some results given as binding are weak or reduced against the parent protein; the word gives no strength. For part of these data: Tags and fused reporters may be left off the sequences shown. One block for each molecule: values may come before it.

By UniProt entry, the sequences of proteins in these tests, tags left out.
UniProt P51114: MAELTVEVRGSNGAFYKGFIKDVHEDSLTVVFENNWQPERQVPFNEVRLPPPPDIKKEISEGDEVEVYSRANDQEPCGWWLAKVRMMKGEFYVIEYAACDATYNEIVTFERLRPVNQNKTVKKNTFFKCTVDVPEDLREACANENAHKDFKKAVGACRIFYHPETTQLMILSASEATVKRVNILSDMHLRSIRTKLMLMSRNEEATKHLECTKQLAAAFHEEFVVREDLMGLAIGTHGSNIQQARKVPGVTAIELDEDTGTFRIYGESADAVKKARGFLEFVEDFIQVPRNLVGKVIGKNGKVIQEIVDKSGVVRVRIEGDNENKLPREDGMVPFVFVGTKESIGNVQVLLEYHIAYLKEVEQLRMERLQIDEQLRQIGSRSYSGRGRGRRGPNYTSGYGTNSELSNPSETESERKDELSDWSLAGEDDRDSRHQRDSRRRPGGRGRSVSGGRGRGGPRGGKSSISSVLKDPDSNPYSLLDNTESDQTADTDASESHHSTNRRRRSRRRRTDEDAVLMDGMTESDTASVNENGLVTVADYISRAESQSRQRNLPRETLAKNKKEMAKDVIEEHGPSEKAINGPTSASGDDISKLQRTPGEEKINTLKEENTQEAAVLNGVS

How the values were obtained:
[1] = molecular target: T1, Kinesin family member C1 (KIFC1) (human (endogenous in human STS cell lines)) (UniProt Q9BW19); assay: co-IP; endogenous proteins; cells lysed at 4 °C in IP lysis buffer, supernatant incubated with 2 µg/mg specific primary antibody overnight at 4 °C, Western blot (Figure 6A)
T1 sequence: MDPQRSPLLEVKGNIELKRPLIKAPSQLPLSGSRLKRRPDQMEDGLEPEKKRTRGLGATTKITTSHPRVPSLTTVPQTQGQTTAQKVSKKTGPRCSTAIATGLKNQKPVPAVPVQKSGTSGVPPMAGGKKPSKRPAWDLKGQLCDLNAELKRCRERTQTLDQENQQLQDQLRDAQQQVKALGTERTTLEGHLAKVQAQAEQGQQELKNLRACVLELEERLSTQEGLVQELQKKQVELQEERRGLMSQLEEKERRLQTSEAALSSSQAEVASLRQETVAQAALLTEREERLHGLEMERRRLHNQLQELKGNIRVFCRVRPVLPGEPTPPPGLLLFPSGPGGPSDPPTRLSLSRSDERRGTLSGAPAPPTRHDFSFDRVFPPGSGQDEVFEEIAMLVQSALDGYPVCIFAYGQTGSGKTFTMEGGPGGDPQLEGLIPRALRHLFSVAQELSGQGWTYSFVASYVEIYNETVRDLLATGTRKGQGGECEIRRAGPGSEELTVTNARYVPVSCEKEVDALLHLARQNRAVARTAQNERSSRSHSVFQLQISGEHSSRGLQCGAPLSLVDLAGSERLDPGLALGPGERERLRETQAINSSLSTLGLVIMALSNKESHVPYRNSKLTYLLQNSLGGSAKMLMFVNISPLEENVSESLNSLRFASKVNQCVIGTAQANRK

KIFC1-Flag (human) = molecular target: T2, KIFC1-Flag (human) (UniProt Q9BW19); assay: co-IP; exogenous: lysates of KIFC1-Flag or FXR1-Flag-transfected SK-LMS-1 cells immunoprecipitated, Western blot (Figure 6B)
T2 sequence: T1 sequence

FXR1-Flag (human) = FXR1-Flag (human) (UniProt P51114); assay: as above

binding [1]: binds
binding (KIFC1-Flag (human)): binds
Molecule: FXR1 (from UniProt P51114 1-621)

binding (FXR1-Flag (human)): binds
B1: Kinesin family member C1 (KIFC1) (protein, UniProt Q9BW19 1-673)
chain: T1 sequence
